Experimental data reported in article PMC11918873.
These are yes or no findings as the source states them, for the method shown. In cells and extracts the contact can be indirect. Some entries that bind do so weakly or less than the wild type. Where a sequence is shown, tags or fusion partners need not be part of it.

Sequences of proteins named here, by UniProt entry; tags and fusion partners are left off. A change or cut given only in a name is not applied to a line headed by its entry. A line that says so, or that is headed by a name, gives the form on record, which may keep a tag or linker.
NF p.2069myc (wild-type neurofibromin, N-terminal 2069 amino acids, myc-tagged) (P21359-2, form named): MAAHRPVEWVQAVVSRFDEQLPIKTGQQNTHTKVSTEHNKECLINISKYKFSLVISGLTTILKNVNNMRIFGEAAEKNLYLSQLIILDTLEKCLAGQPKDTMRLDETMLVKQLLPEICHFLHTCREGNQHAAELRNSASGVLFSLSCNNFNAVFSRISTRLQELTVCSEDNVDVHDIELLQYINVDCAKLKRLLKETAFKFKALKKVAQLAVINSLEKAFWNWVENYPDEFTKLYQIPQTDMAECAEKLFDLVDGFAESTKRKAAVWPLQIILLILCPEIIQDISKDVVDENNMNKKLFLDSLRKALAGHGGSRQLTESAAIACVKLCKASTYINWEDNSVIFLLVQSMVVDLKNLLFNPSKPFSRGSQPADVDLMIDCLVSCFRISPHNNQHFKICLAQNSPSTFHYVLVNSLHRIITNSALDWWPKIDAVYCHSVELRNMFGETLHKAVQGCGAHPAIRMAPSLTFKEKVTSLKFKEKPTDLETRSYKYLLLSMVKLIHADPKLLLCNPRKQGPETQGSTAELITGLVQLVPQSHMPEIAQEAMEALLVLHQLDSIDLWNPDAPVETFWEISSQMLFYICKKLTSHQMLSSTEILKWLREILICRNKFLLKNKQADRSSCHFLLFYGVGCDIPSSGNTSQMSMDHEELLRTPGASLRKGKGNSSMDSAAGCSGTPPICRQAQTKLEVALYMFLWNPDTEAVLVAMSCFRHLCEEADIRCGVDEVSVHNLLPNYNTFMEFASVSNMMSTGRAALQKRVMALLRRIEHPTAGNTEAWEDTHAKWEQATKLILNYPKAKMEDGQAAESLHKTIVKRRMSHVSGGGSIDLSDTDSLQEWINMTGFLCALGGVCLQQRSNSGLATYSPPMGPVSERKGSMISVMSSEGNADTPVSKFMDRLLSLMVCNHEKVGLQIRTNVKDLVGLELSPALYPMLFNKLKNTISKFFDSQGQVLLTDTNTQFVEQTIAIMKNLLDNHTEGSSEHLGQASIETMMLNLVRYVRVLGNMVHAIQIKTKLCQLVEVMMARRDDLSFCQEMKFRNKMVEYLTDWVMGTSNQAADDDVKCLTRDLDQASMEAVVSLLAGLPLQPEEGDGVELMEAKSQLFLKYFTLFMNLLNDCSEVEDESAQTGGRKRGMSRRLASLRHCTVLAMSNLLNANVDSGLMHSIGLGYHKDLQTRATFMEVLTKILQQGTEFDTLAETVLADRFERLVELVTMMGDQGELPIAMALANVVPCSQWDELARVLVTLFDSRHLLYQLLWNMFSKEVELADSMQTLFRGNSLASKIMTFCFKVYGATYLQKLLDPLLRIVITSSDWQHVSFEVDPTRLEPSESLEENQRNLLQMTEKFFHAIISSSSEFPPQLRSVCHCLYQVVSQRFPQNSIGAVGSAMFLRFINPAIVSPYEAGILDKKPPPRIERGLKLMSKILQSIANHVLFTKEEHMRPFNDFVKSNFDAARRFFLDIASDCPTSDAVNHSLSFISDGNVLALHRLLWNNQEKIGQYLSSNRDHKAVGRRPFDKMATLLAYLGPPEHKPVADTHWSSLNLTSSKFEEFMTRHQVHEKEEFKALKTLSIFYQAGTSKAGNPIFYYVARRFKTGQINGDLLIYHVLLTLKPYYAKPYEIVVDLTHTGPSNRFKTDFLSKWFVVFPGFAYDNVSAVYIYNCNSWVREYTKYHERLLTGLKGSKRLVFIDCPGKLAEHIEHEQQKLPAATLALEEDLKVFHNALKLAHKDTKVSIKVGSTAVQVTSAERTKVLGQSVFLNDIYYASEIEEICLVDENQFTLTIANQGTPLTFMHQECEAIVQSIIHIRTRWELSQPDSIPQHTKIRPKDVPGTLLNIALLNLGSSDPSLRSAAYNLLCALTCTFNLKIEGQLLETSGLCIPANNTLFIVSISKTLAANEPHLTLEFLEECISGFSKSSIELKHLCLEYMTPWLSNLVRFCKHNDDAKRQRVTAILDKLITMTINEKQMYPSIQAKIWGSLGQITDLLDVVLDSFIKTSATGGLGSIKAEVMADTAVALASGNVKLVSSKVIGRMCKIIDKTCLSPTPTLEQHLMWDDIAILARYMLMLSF

Biological target: T1, FLAG-SPRED1 (wild-type Sprouty-related protein with an EVH domain 1) (human) (UniProt Q7Z699)
T1 sequence: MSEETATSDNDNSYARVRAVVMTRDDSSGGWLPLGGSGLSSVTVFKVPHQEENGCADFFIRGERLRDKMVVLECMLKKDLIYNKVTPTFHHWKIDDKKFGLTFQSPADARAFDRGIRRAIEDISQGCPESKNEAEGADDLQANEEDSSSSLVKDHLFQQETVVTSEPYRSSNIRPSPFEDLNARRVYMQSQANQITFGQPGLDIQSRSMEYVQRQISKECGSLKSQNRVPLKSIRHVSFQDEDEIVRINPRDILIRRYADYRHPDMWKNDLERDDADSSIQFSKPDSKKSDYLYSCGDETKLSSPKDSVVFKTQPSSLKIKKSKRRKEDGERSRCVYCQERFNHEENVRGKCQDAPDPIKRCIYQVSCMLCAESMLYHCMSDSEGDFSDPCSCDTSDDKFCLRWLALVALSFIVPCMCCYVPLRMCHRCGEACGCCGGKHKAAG
Assay: co-IP; FLAG-SPRED1 (WT or variant) and myc-tagged NF (WT or variant) coexpressed in HEK 293 T cells; complexes immunoprecipitated with anti-FLAG affinity beads; NF signal in the IP fraction by immunoblotting, relative to WT (= 1.0), at least 3 independent experiments

Substance: NF p.2069myc (wild-type neurofibromin, N-terminal 2069 amino acids, myc-tagged) (from UniProt P21359-2 1-2069) (domain or fragment)
- binding: binds
